# From the supplement of paper PMC4604168 (melanoma cell lines)
# The other results are listed elsewhere or left out. Single values are uncertain, as repeats are few or missing.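 The apoptosis fraction was the count of cleaved-PARP antibody-stained nuclei relative to all DNA-stained nuclei, imaged in 1,536-well plates. Screening doses were set so most cells survived, and baseline and induced cleaved-PARP levels vary greatly across cell lines.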
# Tested on: SkMel28
# Assay: cleaved PARP positive nuclei fraction relative to DMSO control; melanoma cells; higher = more apoptosis
# Settings: library dose: low library concentration; 72 h
row,SMILES,cleaved PARP positive nuclei fraction
1,"O=c1[nH]nc(Sc2ncc([N+](=O)[O-])s2)n1-c1ccc2c(c1)OCCO2 + COc1ccc(COc2ccc(Cc3cnc(N)nc3N)cc2OC)cc1 [GW2580] (first compound 0.2 µM, partner dose 1 µM)",46%
2,"COc1cc([C@@H]2c3cc4c(cc3[C@@H](O[C@@H]3O[C@@H]5CO[C@@H](C)O[C@H]5[C@H](O)[C@H]3O)[C@H]3COC(=O)[C@H]23)OCO4)cc(OC)c1O [etoposide] + O=S(=O)(c1ccccc1)N(CC(F)(F)F)c1ccc(C(O)(C(F)(F)F)C(F)(F)F)cc1 [T0901317] (first compound 0.02 µM, partner dose 1.4 µM)",122%
3,"O=c1[nH]nc(Sc2ncc([N+](=O)[O-])s2)n1-c1ccc2c(c1)OCCO2 + O=S(=O)(c1ccccc1)N(CC(F)(F)F)c1ccc(C(O)(C(F)(F)F)C(F)(F)F)cc1 [T0901317] (first compound 0.2 µM, partner dose 1.4 µM)",152%
4,"Cc1cc(Nc2cc(N3CCN(C)CC3)nc(Sc3ccc(NC(=O)C4CC4)cc3)n2)n[nH]1 [Tozasertib] + Cn1cncc1[C@@](N)(c1ccc(Cl)cc1)c1ccc2c(c1)c(-c1cccc(Cl)c1)cc(=O)n2C [tipifarnib] (first compound 0.006 µM, partner dose 0.01 µM)",40.5%
5,"CC[C@]1(O)C[C@H]2CN(CCc3c([nH]c4ccccc34)[C@@](C(=O)OC)(c3cc4c(cc3OC)N(C=O)[C@H]3[C@@](O)(C(=O)OC)[C@H](OC(C)=O)[C@]5(CC)C=CCN6CC[C@]43[C@@H]65)C2)C1 [vincristine] + c1cc(-c2cnn3cc(-c4ccc(OCCN5CCCCC5)cc4)cnc23)ccn1 [Dorsomorphin] (first compound 0.0001 µM, partner dose 0.4 µM)",593%
6,"Cc1ccc(Nc2nccc(N(C)c3ccc4c(C)n(C)nc4c3)n2)cc1S(N)(=O)=O [Pazopanib] + CN(NC(=O)CC(=O)NN(C)C(=S)c1ccccc1)C(=S)c1ccccc1 [STA4783] (first compound 0.4 µM, partner dose 0.006 µM)",30.5%
7,"Cc1cn(-c2cc(NC(=O)c3ccc(C)c(Nc4nccc(-c5cccnc5)n4)c3)cc(C(F)(F)F)c2)cn1 [nilotinib] + COc1ccc(COc2ccc(Cc3cnc(N)nc3N)cc2OC)cc1 [GW2580] (first compound 0.2 µM, partner dose 1 µM)",396%
8,"COc1cc([C@@H]2c3cc4c(cc3[C@@H](O[C@@H]3O[C@@H]5CO[C@@H](C)O[C@H]5[C@H](O)[C@H]3O)[C@H]3COC(=O)[C@H]23)OCO4)cc(OC)c1O [etoposide] + C[C@@H]1CCN(C(=O)CC#N)C[C@@H]1N(C)c1ncnc2[nH]ccc12 [CP690550] (first compound 0.02 µM, partner dose 1 µM)",112%
9,"Cc1cn(-c2cc(NC(=O)c3ccc(C)c(Nc4nccc(-c5cccnc5)n4)c3)cc(C(F)(F)F)c2)cn1 [nilotinib] + Cn1cc(/C=C2\C(=O)Nc3cccnc32)c2ccccc21 [GW441756] (first compound 0.2 µM, partner dose 0.4 µM)",138%
10,"Cc1cn(-c2cc(NC(=O)c3ccc(C)c(Nc4nccc(-c5cccnc5)n4)c3)cc(C(F)(F)F)c2)cn1 [nilotinib] + O=c1cc(-c2cccc3c2Sc2ccccc2S3)oc(N2CCOCC2)c1 [KU55933] (first compound 0.2 µM, partner dose 1 µM)",187%
11,"CC[C@]1(O)C[C@H]2CN(CCc3c([nH]c4ccccc34)[C@@](C(=O)OC)(c3cc4c(cc3OC)N(C=O)[C@H]3[C@@](O)(C(=O)OC)[C@H](OC(C)=O)[C@]5(CC)C=CCN6CC[C@]43[C@@H]65)C2)C1 [vincristine] + NC(=O)Nc1cc(-c2cccc(F)c2)sc1C(=O)N[C@H]1CCCNC1 [AZD7762] (first compound 0.0001 µM, partner dose 0.02 µM)",440%
12,"CCCCCCCCCCCCCCCCCCOP(=O)([O-])OC1CC[N+](C)(C)CC1 [Perifosine] + COc1ccc2c(c1)CCC1C2CCC2(C)C(NCCCCCCN3C(=O)C=CC3=O)CCC12 [U73122] (first compound 0.4 µM, partner dose 0.4 µM)",127%

# Rewritten as tab-separated lines: part of the list above.
row	SMILES	cleaved PARP positive nuclei fraction
5	CC[C@]1(O)C[C@H]2CN(CCc3c([nH]c4ccccc34)[C@@](C(=O)OC)(c3cc4c(cc3OC)N(C=O)[C@H]3[C@@](O)(C(=O)OC)[C@H](OC(C)=O)[C@]5(CC)C=CCN6CC[C@]43[C@@H]65)C2)C1 [vincristine] + c1cc(-c2cnn3cc(-c4ccc(OCCN5CCCCC5)cc4)cnc23)ccn1 [Dorsomorphin] (first compound 0.0001 µM, partner dose 0.4 µM)	593%
6	Cc1ccc(Nc2nccc(N(C)c3ccc4c(C)n(C)nc4c3)n2)cc1S(N)(=O)=O [Pazopanib] + CN(NC(=O)CC(=O)NN(C)C(=S)c1ccccc1)C(=S)c1ccccc1 [STA4783] (first compound 0.4 µM, partner dose 0.006 µM)	30.5%
